Data reported in EP0579804B1, “BIOLOGICAL ARTIFICIAL LIVER” (MONSANTO COMPANY, priority 1992, dated 1993).

System: Hepatocytes
Test: extracorporeal hepatic metabolism in the hepatocyte bioreactor attached to an ahepatic pig
Type: in vitro ADME, outbred Yorkshire/white pig
Conditions: administered into the ultrafiltrate at the inlet of the bioreactor; metabolites 7-OH-coumarin and monoethylglycinexylidide (MEGX) measured at the outlets of the bioreactors

`CCN(CC)CC(=O)Nc1c(C)cccc1C` [lidocaine] was tested, and the metabolism was “Significant metabolism”.
